# Experimental data: PubChem BioAssay AID1259425 (University of Nebraska Medical Center, 2018)
# Test: 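Compare each knockdown with KSR1 silencing using changes in marker transcripts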 (primary screen)
# Cells: HCT116 human colon cancer cells
# Reagent: siRNA pool against human genes, 50 nM siRNA
# Read-out: 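After 50 nM siRNA pool, branched-DNA assay measures six marker transcripts per well, minus blank, normalised to the geometric mean of two housekeeping transcripts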
# Scale: BNIP3L mRNA: higher = more BNIP3L transcript after knockdown; NDRG1 mRNA: higher = more NDRG1 transcript after knockdown
# Shown is a random part of about 14,000 reagents. Not all columns of the deposit are shown. Reagent sequences are not shown. The record does not give: the time to read-out.
Gene,"BNIP3L mRNA, set 1","NDRG1 mRNA, set 1"
FASLG (GeneID 356),0.0244,0.147
P3H2 (GeneID 55214),0.113,0.344
ZNF281 (GeneID 23528),0.0536,0.127
KBTBD8 (GeneID 84541),0.124,0.195
STT3A (GeneID 3703),0.0599,0.0894
CA8 (GeneID 767),0.102,0.346
ZNF611 (GeneID 81856),0.128,0.337
TBL1XR1 (GeneID 79718),0.263,0.263
FLRT2 (GeneID 23768),0.131,0.164
STARD3NL (GeneID 83930),0.182,0.0961
IMPDH1 (GeneID 3614),0.0872,0.133
RALBP1 (GeneID 10928),0.0759,0.205
KLHDC2 (GeneID 23588),0.113,0.136
RAB34 (GeneID 83871),0.276,0.282
VIPAS39 (GeneID 63894),0.117,0.113
POGZ (GeneID 23126),0.179,0.352
HOXC5 (GeneID 3222),0.119,0.0997
CD27 (GeneID 939),0.0418,0.0958
HDAC3 (GeneID 8841),0.156,0.237
ROBO4 (GeneID 54538),0.0922,0.138
HEXB (GeneID 3074),0.0719,0.0525
ZNF8 (GeneID 7554),0.0371,0.132
SFPQ (GeneID 6421),0.172,0.402
DRD5 (GeneID 1816),0.142,0.488
RP1 (GeneID 6101),0.214,0.351
INTU (GeneID 27152),0.115,0.214
TACC3 (GeneID 10460),0.0417,0.266
SEC24A (GeneID 10802),0.122,0.119
TNIK (GeneID 23043),0.088,0.175
PIK3C2A (GeneID 5286),0.115,0.245
ANXA2P1 (GeneID 303),0.296,0.654
NAT10 (GeneID 55226),0.154,0.274
COTL1 (GeneID 23406),0.408,0.763
CHRNA3 (GeneID 1136),0.0428,0.076
SLC4A4 (GeneID 8671),0.0805,0.173
ZBTB43 (GeneID 23099),0.04,0.286
BTG3 (GeneID 10950),0.0459,0.0719
GUCY1A1 (GeneID 2982),0.0765,0.135
CARHSP1 (GeneID 23589),0.0658,0.335
SEPTIN8 (GeneID 23176),0.11,0.0976
ARL2 (GeneID 402),0.0936,1.52
DRAM1 (GeneID 55332),0.0892,0.164
FECH (GeneID 2235),0.0763,0.15
SSH3 (GeneID 54961),0.113,0.239
RGS5 (GeneID 8490),0.17,0.131
CCL15 (GeneID 6359),0.106,0.194
CFI (GeneID 3426),0.105,0.19
OBSL1 (GeneID 23363),0.143,0.0398
BTF3 (GeneID 689),0.0534,0.252
SYCP2 (GeneID 10388),0.155,0.258

A few values from the list:
For “BNIP3L mRNA, set 1”, FLRT2 (GeneID 23768) reads 0.131
For “NDRG1 mRNA, set 1”, RP1 (GeneID 6101) reads 0.351
Under “BNIP3L mRNA, set 1”, SEPTIN8 (GeneID 23176) is entered as 0.11
For “BNIP3L mRNA, set 1”, BTF3 (GeneID 689) has 0.0534
Value for KBTBD8 (GeneID 84541) under “BNIP3L mRNA, set 1”: 0.124
Entry of FASLG (GeneID 356) in “NDRG1 mRNA, set 1”: 0.147
